Results from PubChem BioAssay AID434947 (Broad Institute, 2010).
Out of some 2,200 compounds screened, about 15 (0.7%) were called active.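 The calls were made as follows: active = fitted half-maximal concentration for loss of luminescence signal no more than a set limit of log units above the top tested concentration; inconclusive = flat fit with 30 to 70% signal loss, or invalid fit; inactive = half-maximal concentration above that set limit.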 Some of the results follow.

Assay: ADP-Glo luciferase signal interference – biochemical, luminescence, cell-free, homogeneous, artefact control for GSK3beta inhibitor project, dose response (AID 434947);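 also: kinase-free counter screen of ADP-Glo detection reagents for GSK3beta hits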
Conditions: Cell-free ADP-Glo reagents, 5 uM ADP

EC50, inactive:
CCNc1nc(N)c(C(=O)c2ccc(Cl)s2)s1 > 30 µM
O=C1NC(=Nc2ccc(O)cc2)S/C1=C/c1ccco1 > 30 µM
CCN(c1ccccc1)S(=O)(=O)c1cc(NC(=O)Nc2ccccc2C#N)ccc1Cl > 30 µM
CCOC(=O)c1c(C)oc2c(CC(=O)c3ccccc3)c(Cl)c(O)c(O)c12 > 30 µM
COc1ccccc1/C=C/C=C1\Oc2c(ccc(O)c2CN(C)C)C1=O > 30 µM
O=C(Cc1ccccc1)Nc1ccc(N2CCOCC2)cc1 > 30 µM
CC1CCN(c2nc3c(N)ncnc3n2[C@@H]2O[C@H](CO)[C@@H](O)[C@H]2O)CC1 > 30 µM
CN(C)c1cc[n+](CC(=O)N2c3ccccc3Sc3ccccc32)cc1 > 30 µM
COC(=O)c1ccc(Nc2nc(-c3ccncc3)nc3ccccc23)cc1 > 30 µM
COc1cc(-c2[nH]nc3c2C(c2ccco2)C(C#N)=C(N)O3)cc(OC)c1OC (centres undefined) > 30 µM
CCOC(=O)C1=C(C)Nc2ncnn2C1c1c[nH]c2ccccc12 (centres undefined) > 30 µM
Fc1ccc(CSc2ccc3nnc(-c4cccnc4)n3n2)cc1 > 30 µM
COc1ccc(OC)c(C(=O)c2coc3ccc(OCC(=O)O)cc23)c1 > 30 µM
Nc1nc(NCC2CCCO2)nc(Nc2cccc(Cl)c2)c1[N+](=O)[O-] (centres undefined) > 30 µM
CCSc1nnc(NC(=O)CSc2nnc(CNC(=O)c3cc(OC)c(OC)c(OC)c3)o2)s1 > 30 µM
CCOC(=O)c1ccc2ncc(C(=O)OCC)c(Nc3ccc(N4CCOCC4)cc3)c2c1 > 30 µM
COc1ccc2c(c1)-c1c(ssc1=S)C(C)(C)N2 > 30 µM
c1ccc(OCCCn2nnc(-c3ccncc3)n2)cc1 > 30 µM
CCc1ccc(/C=N/NC(=O)c2nnn(-c3nonc3N)c2CN2CCOCC2)cc1 > 30 µM
CCC(C)NCCOCCOc1ccc(Cl)cc1Br (centres undefined) > 30 µM
CO/N=C/c1ccc(Oc2ccc(C)cc2)c([N+](=O)[O-])c1 > 30 µM
Nc1nc(NCC2CCCO2)nc(NCC2CCCO2)c1[N+](=O)[O-] (centres undefined) > 30 µM
COC(=O)c1nnn(-c2nonc2N)c1COc1ccc(C=O)cc1OC > 30 µM
COCCCNc1nc(N)c([N+](=O)[O-])c(NC2CCCCC2)n1 > 30 µM
CCNC(=O)NC(=O)CSc1nc2ccccc2n1CCOC > 30 µM
COc1ccccc1CNC(=O)OCc1nccnc1C(=O)Nc1ccc(Br)cn1 > 30 µM
Cc1ccc(S(=O)(=O)NCC(=O)N(CCc2ccccc2)CC(=O)NCc2ccco2)cc1 > 30 µM
CO/N=C(/CNC(=O)c1ccc(Cl)cc1Cl)c1ccc(Cl)cc1 > 30 µM
C[n+]1ccccc1/C=C/c1cc(Br)ccc1O > 30 µM
Cc1cc(NC(=O)CSc2nnc(C3CC3)n2Cc2ccccc2)no1 > 30 µM
Cc1ccc2nc3c(cc2c1)c(NC(=O)c1ccccn1)nn3CC(C)C > 30 µM
COc1cccc(-c2c(C(=O)N/N=C(\C)c3ccncc3)nnn2-c2nonc2N)c1 > 30 µM
Cc1nc(Nc2ccccc2)sc1C(=O)Nc1ccccc1 > 30 µM
CN(C)Cc1c(C(=O)N/N=C/c2ccncc2)nnn1-c1nonc1N > 30 µM
COc1ccc(-c2nn(-c3ccccc3)cc2/C=N/N=C(N)N)cc1OC > 30 µM
COc1cc(/C=N/Nc2nc(Nc3ccccc3)nc(N3CCCCC3)n2)ccc1OCC(=O)O > 30 µM
CCC1(CC)NC(=O)N(CC(=O)OCC(=O)Nc2sccc2C#N)C1=O > 30 µM
COc1ccc(OC)c(Nc2nc(N(C)c3ccccc3)nc(N)c2[N+](=O)[O-])c1 > 30 µM
CCOc1cc(C2c3c(n[nH]c3C)C(=O)N2c2ccc(C)cc2)ccc1O (centres undefined) > 30 µM
COC(=O)Cc1ccc2sc(-c3ccccc3)nc2c1 > 30 µM
NS(=O)(=O)c1cccc(NC(=O)COC(=O)/C(=C/c2cccs2)c2cccs2)c1 > 30 µM
CS(=O)(=O)N1CCN(c2cccc(Cl)n2)CC1 > 30 µM
COC(=O)c1ccc(CSc2nnc(-c3ccncc3)o2)o1 > 30 µM
Cc1cc(Cl)nc(Cl)c1C(=O)N1CCOCC1 > 30 µM
O=C(Nc1cc(-c2ccccc2)[nH]n1)c1ccccc1 > 30 µM
c1ccc(CNCC2COc3ccccc3O2)cc1 (centres undefined) > 30 µM
COCCOC(=O)C1=C(C)Nc2ncnn2C1c1ccccc1 (centres undefined) > 30 µM
O=C(Nc1ccc(Cl)c(Cl)c1)Nc1ccccn1 > 30 µM
CCC(C)Oc1cc(-c2ccnc(Nc3cccc(Cl)c3)n2)ccn1 (centres undefined) > 30 µM
COc1cccc(C(=O)Nc2nc(-c3ccncc3)cs2)c1 > 30 µM
CCCc1cc(=O)oc2cc(C)cc(O)c12 > 30 µM
O=C(O)c1ccccc1Nc1ccccc1C(=O)O > 30 µM
N#Cc1c(Cl)nc(-c2ccncc2)nc1-c1ccccc1 > 30 µM
Nc1nonc1-n1nnc(C(=O)N/N=C/c2ccccc2Br)c1CN1CCCC1 > 30 µM
CN(C)Cc1c(O)ccc2c(=O)c(-c3ccccc3)c(C(F)(F)F)oc12 > 30 µM
O=c1oc(-c2cccs2)nc2sc3c(c12)CCCC3 > 30 µM
N=C(N)N=Nc1c(O)[nH]c2ccc(Br)cc12 > 30 µM
CCCn1c(SCC(=O)Nc2ccc(Cl)cn2)nnc1C1CC1 > 30 µM
O=c1[nH]nc(SCCS(=O)(=O)c2ccc(F)cc2)n1-c1ccc2c(c1)OCCO2 > 30 µM
CC(C)CNC(=O)c1cccc(NC(=O)c2ccc(NC(=O)c3ccco3)cc2)c1 > 30 µM
COc1ccc2nc(NC(=O)CSC3=NCCS3)sc2c1 > 30 µM
COC(=O)c1nnn(-c2nonc2N)c1CSc1nc2ccccc2s1 > 30 µM
CC(C)Cc1ccccc1O > 30 µM
COc1cccc(NC(=O)CN(C2=NC3CS(=O)(=O)CC3S2)c2cccc(C)c2)c1 (centres undefined) > 30 µM
O=C1CCCC2=C1C(c1cccs1)n1ncnc1N2 (centres undefined) > 30 µM
Cn1c(SCC(=O)Nc2ccccc2)nc2ccccc2c1=O > 30 µM
Nc1nc(NCCO)nc(NC2CCCCC2)c1[N+](=O)[O-] > 30 µM
O=C1Nc2ccccc2/C1=N\N1CCOCC1 > 30 µM
c1ccc(CSc2nnc(-c3cccnc3)o2)cc1 > 30 µM
CCCN(CCC)Cc1c(C(=O)N/N=C/C(C)=C\c2ccccc2)nnn1-c1nonc1N > 30 µM
CC(C)Nc1nnc(SCC(=O)NCc2ccc3c(c2)OCO3)s1 > 30 µM
O=C(Nc1ccsc1C(=O)NC1CC1)c1ccccc1 > 30 µM
CCOC(=O)c1nnn(-c2nonc2N)c1CSc1ccccc1 > 30 µM
CC1CN(C(=O)CCCN2C(=O)c3ccccc3C2=O)CC(C)O1 (centres undefined) > 30 µM
COC(=O)C(CC(C)C)NC(=O)CSc1nc(-c2ccccc2)c(C#N)c(=O)[nH]1 (centres undefined) > 30 µM
Cc1ccc(C)c(S(=O)(=O)N2CCN(C(C(=O)Nc3ccc(F)cc3)c3ccccc3)CC2)c1 (centres undefined) > 30 µM
CC1(C)CC(=O)C=C(Nc2ccc(F)cc2)C1 > 30 µM
CCN(CC)Cc1c(C(=O)N/N=C/c2c(Cl)cccc2Cl)nnn1-c1nonc1N > 30 µM
O=c1c(-c2ccccc2)c(-c2ccccc2)oc2cc(O)cc(O)c12 > 30 µM
O=c1c2[nH]c3ccccc3c2ncn1C1CCCCC1 > 30 µM
Cc1cc(OCC(O)CNC(C)c2ccccc2)ccc1C(C)C (centres undefined) > 30 µM
COc1ccc(-c2nn(-c3ccccc3)cc2C(=O)O)cc1 > 30 µM
COc1ccccc1-c1cc(=O)c2c(O)ccc([N+](=O)[O-])c2o1 > 30 µM
COc1ccccc1-c1coc2c(CN(C)C)c(O)ccc2c1=O > 30 µM
Cc1c(C#N)c(O)[nH]c(=O)c1N=Nc1ccc(Cl)c(C(=O)O)c1 > 30 µM
O=C(CSc1ccc2nnc(-c3ccc(F)cc3)n2n1)NCc1ccco1 > 30 µM
COc1ccccc1-c1nc(C(=O)NCC2CCCO2)cc2c1[nH]c1ccccc12 (centres undefined) > 30 µM
O=C(Nc1ccccc1)Nc1cnccn1 > 30 µM
CCc1cccc(C)c1NC(=O)CSc1nnc(CCCOc2ccc(Cl)cc2Cl)n1C > 30 µM
COc1ccc(N(CN2C(=O)C3CC=CCC3C2=O)C(=O)c2ccco2)cc1 (centres undefined) > 30 µM
CCOc1ccccc1Nc1cc(C)nc2ccc(C)cc12 > 30 µM
Cc1ccccc1-c1nnc(SCCOc2ccc3c(C)cc(=O)oc3c2)o1 > 30 µM
COCc1c(C(=O)N/N=C/c2ccncc2)nnn1-c1nonc1N > 30 µM
COc1ccc(-c2nn(CCC(=O)O)cc2/C=N/NC(N)=S)cc1 > 30 µM

For reference, 4 of the compounds above.
EC50, inactive:
CC(C)Cc1ccccc1O > 30 µM
COc1cccc(NC(=O)CN(C2=NC3CS(=O)(=O)CC3S2)c2cccc(C)c2)c1 (centres undefined) > 30 µM
O=C1CCCC2=C1C(c1cccs1)n1ncnc1N2 (centres undefined) > 30 µM
Cn1c(SCC(=O)Nc2ccccc2)nc2ccccc2c1=O > 30 µM

Retrieved one by one from the list above, two records:
EC50, inactive:
COc1cc(-c2[nH]nc3c2C(c2ccco2)C(C#N)=C(N)O3)cc(OC)c1OC (centres undefined) > 30 µM
CCOC(=O)C1=C(C)Nc2ncnn2C1c1c[nH]c2ccccc12 (centres undefined) > 30 µM
